Measurements as given in patent publication EP4616854A1, “TREATMENT OF MUSCLE SARCOPENIA” (Molius Saglik Teknolojileri Anonim Sirketi, priority 2024, dated 2025).
At least one compound was matched to its structure with a doubt left.

How the values were obtained:
[1] = test system: C2C12 myoblast line; assay: Cell model not treated with C2-ceramide (Example 2): Western blot of myogenic markers; format: cell-based, mouse
[2] = test system: cardiomyopathic rats; conditions: Unger and Orci [41]; cited from earlier work
[3] = test system: C2-ceramide treated C2C12 cell line; assay: In vitro sarcopenia model (Example 2): Western blot of target genes and myogenic markers; format: cell-based, mouse; conditions: for expression of PDHX: selected non-toxic optimal dose, in vitro sarcopenia model
Source text: C2-ceramide ([…], Sigma Aldrich) was used for inducing sarcopenia in the C2C12 cell line. […] Then, the medium was changed twice, at two-day intervals, with a differentiation medium (DMEM with 2% FBS and 1% P/S) to differentiate myoblasts into myotubes. Because C2-ceramide may affect mitochondrial activity in muscle cells, another cell model was created without introducing ceramide. After completion of myotube differentiation, cells were harvested for western blot analysis. […] The cell lysates were centrifuged at 12.000 rpm for 10 min and supernatants were collected. Protein Assay Dye Reagent (5000006, Bio-Rad) was used for the determination of protein concentration. The absorbance of the proteins was measured spectrophotometrically at 595 nm by a microplate reader (Hidex Sense Beta Plus). […] The membrane was blocked with 5 % skim milk for 30 min at 4 °C with gentle rocking. After blocking, the membrane was treated with primary antibodies: anti-AGL (ab133720, Abcam, UK) anti-PDHX (HPA038484, Human Protein Atlas, Sweden), anti-Myogenin (ab124800, Abcam), anti-Myosin/MyH3 (ab124205, Abcam), anti-Beta actin (ab8227, Abam) as a loading control overnight at 4 °C on a rocking platform. After the treatment of primary antibodies, the membrane was washed three times with TBS-T buffer ([…]-7500-100, Medicago). Then, Goat anti-Rabbit IgG-HRP (ab205718, Abcam) was treated as the secondary antibody for 30 min at 4 °C with gentle rocking.

[4] = test system: C2C12 myoblasts; assay: Differentiation of C2C12 myoblasts to myotubes under drug treatment, without ceramide; format: cell-based, mouse; conditions: selected non-toxic concentration of drug candidate, Fig. 11
Procedure: The C2C12 cells (C2C12 mouse C3H muscle myoblast purchased from Sigma) were maintained in modified Eagle's medium (DMEM) with 10 % fetal bovine serum (FBS) and 1 % penicillin/streptomycin (P/S) solution in a humidified incubator with 5 % CO2 at 37 °C. […] […] Then, the medium was changed twice, at two-day intervals, with a differentiation medium (DMEM with 2% FBS and 1% P/S) with drug candidates to differentiate myoblasts into myotubes. […] Cell viability was measured spectrophotometrically by Cell Counting kit-8. The expression level of target proteins (ANXA2, CLMP, Cyc1, and SDHB), myogenic markers (MyoG and MyH3) and α-Tubulin (internal control) were detected using Western blots. All experiments were performed with 3 replicates.

SMILES: CC(=O)c1c(C)c2cnc(Nc3ccc(N4CCNCC4)cn3)nc2n(C2CCCC2)c1=O [palbociclib]
- ability to facilitate myotube differentiation without the presence of ceramide [1]: except for Palbociclib
- levels of MyH3 expression ([1]; optimized doses, Fig. 20B): except for Palbociclib
- levels of MyoG expression ([1]; optimized doses, Fig. 20B): except for Palbociclib

SMILES: Cc1c(C)c2c(c(C)c1O)CCC(C)(COc1ccc(CC3SC(=O)NC3=O)cc1)O2 (centres unmarked) [troglitazone]
- myocardial contractility [2]: increased myocardial contractility
- expression levels of MyH3 ([3]; sarcopenic cells): significantly increase
- expression levels of MyoG ([3]; sarcopenic cells): significantly increase
- expression of myogenic markers ([3]; sarcopenic cells, compared to the in vitro sarcopenia model): increased
- expression of PDHX [3]: enhanced
- expression of PDHX ([3]; listed as trolitazone): significantly increase

SMILES: Cc1nc(Nc2ncc(C(=O)Nc3c(C)cccc3Cl)s2)cc(N2CCN(CCO)CC2)n1 [Dasatinib]
- differentiation of myoblasts to myotubes [4]: less differentiated

SMILES: CO[C@@H]1[C@H](N(C)C(=O)c2ccccc2)C[C@H]2O[C@]1(C)n1c3ccccc3c3c4c(c5c6ccccc6n2c5c31)C(=O)NC4 [Midostaurin]
- differentiation of myoblasts to myotubes [4]: less differentiated
